Reference: PubChem BioAssay (EPA / NIEHS)
Where “and” joins values, the source holds several entries; their conditions need not be identical. Equal entries are not always repeated. This list was built around the results that the source calls inconclusive (neither active nor inactive); the mix of calls is not that of the screen. For part of these data: Potencies beside an inconclusive call are fits to weak or partial responses and may not hold up. The source holds several records for some structures; these can differ, active in one and inactive in another. Calls of active or inactive are those of the source. How the source made its calls: active means hit-call score of the fitted dose curve at least 0.9, where 1 is the maximum; inconclusive means response in the unintended direction; inactive means score below 0.9.

By UniProt entry, the sequences of proteins in these tests, tags left out. Where a name states a change or a piece, a line headed by the entry shows the natural chain unless it says otherwise.
UniProt P03372, whole entry, looked up: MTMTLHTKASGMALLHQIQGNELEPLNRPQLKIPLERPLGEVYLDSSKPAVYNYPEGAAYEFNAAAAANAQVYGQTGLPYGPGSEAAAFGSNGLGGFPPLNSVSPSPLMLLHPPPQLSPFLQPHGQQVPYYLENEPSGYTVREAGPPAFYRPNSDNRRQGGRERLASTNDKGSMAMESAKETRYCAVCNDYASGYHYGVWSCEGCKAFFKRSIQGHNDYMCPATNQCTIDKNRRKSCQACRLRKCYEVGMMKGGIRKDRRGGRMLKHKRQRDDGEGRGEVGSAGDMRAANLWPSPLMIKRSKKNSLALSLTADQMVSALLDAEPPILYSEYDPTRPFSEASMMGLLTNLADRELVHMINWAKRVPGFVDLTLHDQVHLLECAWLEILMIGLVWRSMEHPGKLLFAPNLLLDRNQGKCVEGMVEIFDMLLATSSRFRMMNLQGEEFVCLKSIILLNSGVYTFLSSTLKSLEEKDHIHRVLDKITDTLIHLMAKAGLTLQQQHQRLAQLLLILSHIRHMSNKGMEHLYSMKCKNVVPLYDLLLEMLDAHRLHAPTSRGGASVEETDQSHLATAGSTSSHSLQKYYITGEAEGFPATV
UniProt P19793: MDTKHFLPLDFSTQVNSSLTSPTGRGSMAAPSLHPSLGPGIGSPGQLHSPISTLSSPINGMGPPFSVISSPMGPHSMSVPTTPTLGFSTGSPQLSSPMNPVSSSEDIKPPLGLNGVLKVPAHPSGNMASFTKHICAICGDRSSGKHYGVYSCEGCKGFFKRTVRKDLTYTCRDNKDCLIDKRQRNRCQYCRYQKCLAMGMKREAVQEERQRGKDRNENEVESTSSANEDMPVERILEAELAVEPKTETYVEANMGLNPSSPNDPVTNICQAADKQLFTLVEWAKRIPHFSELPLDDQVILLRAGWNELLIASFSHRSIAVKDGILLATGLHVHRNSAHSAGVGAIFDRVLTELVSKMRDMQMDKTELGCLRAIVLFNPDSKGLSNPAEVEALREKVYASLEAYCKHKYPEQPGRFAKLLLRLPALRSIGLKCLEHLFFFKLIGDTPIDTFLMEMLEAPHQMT
UniProt Q96RI1: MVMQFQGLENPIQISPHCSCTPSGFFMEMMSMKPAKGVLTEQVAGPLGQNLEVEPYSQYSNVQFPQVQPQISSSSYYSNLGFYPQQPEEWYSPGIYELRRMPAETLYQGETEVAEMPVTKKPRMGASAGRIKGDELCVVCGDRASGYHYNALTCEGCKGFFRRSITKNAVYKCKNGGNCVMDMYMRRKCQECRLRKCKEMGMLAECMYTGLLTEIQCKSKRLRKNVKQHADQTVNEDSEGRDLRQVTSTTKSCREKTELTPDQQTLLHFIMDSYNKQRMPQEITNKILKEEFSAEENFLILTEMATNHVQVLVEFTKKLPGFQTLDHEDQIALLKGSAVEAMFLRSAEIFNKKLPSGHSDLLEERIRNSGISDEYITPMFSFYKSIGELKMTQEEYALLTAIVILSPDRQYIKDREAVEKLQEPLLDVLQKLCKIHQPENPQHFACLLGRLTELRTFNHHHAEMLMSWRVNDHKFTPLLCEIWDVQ
UniProt P04637, whole entry, looked up: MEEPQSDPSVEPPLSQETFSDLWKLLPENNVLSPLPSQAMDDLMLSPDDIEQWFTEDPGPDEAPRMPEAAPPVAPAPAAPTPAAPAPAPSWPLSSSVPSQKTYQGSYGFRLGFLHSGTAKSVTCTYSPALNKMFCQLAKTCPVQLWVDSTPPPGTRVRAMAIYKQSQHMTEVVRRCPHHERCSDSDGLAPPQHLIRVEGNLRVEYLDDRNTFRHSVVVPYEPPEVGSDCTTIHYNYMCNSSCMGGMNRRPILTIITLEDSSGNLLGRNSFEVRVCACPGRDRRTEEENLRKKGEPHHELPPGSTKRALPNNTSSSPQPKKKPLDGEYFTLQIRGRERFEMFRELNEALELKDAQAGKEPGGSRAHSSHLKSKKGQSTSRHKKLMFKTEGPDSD
UniProt Q92731, whole entry, looked up: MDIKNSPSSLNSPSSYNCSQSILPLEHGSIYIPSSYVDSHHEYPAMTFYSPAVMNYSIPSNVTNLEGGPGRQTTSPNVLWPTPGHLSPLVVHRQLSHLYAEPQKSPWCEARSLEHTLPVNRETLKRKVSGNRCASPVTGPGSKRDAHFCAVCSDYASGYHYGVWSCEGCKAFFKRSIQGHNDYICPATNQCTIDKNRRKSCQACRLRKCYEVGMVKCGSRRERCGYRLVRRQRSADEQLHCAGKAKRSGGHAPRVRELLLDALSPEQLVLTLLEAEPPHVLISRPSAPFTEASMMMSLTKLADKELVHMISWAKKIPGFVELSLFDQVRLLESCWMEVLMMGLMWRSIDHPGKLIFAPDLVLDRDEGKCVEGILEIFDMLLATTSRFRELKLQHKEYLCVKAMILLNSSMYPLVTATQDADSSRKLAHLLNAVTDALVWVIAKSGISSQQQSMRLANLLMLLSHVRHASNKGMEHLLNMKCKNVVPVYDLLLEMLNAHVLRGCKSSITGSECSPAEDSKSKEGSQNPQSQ
UniProt P10275: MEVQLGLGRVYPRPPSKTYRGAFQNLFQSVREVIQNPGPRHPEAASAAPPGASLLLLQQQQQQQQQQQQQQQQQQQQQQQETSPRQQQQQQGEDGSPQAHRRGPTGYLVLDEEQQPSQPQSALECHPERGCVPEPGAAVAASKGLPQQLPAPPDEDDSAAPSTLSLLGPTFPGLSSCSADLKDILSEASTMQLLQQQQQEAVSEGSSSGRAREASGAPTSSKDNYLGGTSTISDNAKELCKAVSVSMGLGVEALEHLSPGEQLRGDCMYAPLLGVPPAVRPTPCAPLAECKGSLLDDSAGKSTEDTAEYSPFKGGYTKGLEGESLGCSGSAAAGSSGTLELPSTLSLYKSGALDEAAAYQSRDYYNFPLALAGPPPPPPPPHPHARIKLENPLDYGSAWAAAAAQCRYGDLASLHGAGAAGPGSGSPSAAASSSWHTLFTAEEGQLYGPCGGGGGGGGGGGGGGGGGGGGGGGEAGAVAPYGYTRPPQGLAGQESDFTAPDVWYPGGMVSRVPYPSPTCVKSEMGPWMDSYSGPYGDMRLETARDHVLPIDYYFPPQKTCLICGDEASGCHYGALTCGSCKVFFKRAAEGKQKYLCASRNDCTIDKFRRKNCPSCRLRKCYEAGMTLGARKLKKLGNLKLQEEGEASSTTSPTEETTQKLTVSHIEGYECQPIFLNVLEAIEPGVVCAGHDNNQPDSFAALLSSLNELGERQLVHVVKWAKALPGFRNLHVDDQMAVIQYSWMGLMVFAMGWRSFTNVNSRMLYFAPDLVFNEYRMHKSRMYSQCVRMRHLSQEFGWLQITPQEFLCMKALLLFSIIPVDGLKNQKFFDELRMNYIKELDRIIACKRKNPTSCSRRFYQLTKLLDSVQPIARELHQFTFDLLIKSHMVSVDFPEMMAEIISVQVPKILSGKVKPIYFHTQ

Experiments:
[1] = biological target: Estrogen receptor (Homo sapiens) (UniProt P03372); test: OT_ERa_GFPERaERE_0120: Odyssey Thera (OT) 2-hour HeLa Transcription Induction Assay for Estrogen Receptor (AID 2283382)
Procedure, shortened: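 Cells (human cervical HeLa) receive compound, incubate 2 hours, then are imaged for fluorescent reporter induction. Images are quantified by high content analysis, and activity is fitted as gain of signal against DMSO.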

[2] = biological target: Retinoic acid receptor RXR-alpha (Homo sapiens) (UniProt P19793); test: OT_NURR1_NURR1RXRa_0480: Odyssey Thera (OT) 8-hour HEK293T Protein Complementation Assay for Nurr1/retinoid X receptor (RXR) (AID 2283385)
Procedure, shortened: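 Interaction of bait and prey reconstitutes a functional reporter, whose fluorescence was measured in HEK293T cells dosed with compound for 8 hours. Signal gain relative to DMSO defined the single endpoint.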

[3] = ATG_XTT_Cytotoxicity: Cytotoxicity Assessment in the Attagene TRANS-FACTORIAL HepG2 Assay (AID 2283584);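 on AC50: XTT signal for cell number as viability in transfected HepG2 cells; cells exposed to compound for 24 h before reading; active means loss of viability signal versus DMSO baseline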
Procedure, shortened: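 HepG2 cells transiently transfected with GAL4-UAS multiple reporter units, dosed 24 h; cytotoxicity read by XTT as loss of signal versus DMSO baseline.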

[4] = TOX21_p53_BLA_p2_viability: Viability Assessment in the Tox21 HCT-116 p53 Agonism Beta-lactamase Assay, Phase 2 (AID 2283591);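 further: actives lower the ATP signal meaning cytotoxicity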
Procedure, shortened: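 HCT116 p53-bla cells, 4000/well, dosed after 5 h plating (217-fold dilution of DMSO stocks) and incubated 16 h at 37C. Viability taken as cellular ATP by CellTiter-Glo luminescence after 30 min RT; signal loss marks cytotoxicity.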

[5] = TOX21_p53_BLA_p3_viability: Viability Assessment in the Tox21 HCT-116 p53 Agonism Beta-lactamase Assay, Phase 3 (AID 2283593);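 further: cells exposed to compound for 16 h before reading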
Procedure, shortened: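 HCT116 cells, 4000/well, dosed 5 h after plating by pin transfer (217-fold dilution from DMSO stock) and incubated 16 h at 37C, 5% CO2. Viability read as ATP luminescence with CellTiter-Glo after 30 min at room temperature.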

[6] = TOX21_p53_BLA_p5_viability: Viability Assessment in the Tox21 HCT-116 p53 Agonism Beta-lactamase Assay, Phase 5 (AID 2283600)
Procedure, shortened: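 Decreased CellTiter-Glo luminescence denotes lost viability. Exposure: 16 h at 37C, 5% CO2, with compounds from DMSO stocks diluted 217-fold in wells of 4000 cells.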

[7] = biological target: Bile acid receptor (Homo sapiens) (UniProt Q96RI1); test: OT_FXR_FXRSRC1_0480: Odyssey Thera (OT) 8-hour HEK293T Protein-Complementation Assay for Farnesoid X receptor/SRC-1 Co-activator (AID 2283383)
Procedure, shortened: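 PCA, HEK293T, 8 h compound exposure; FXR–SRC-1 binding reconstitutes split reporter; fluorescence intensity; positive-direction fit vs DMSO.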

[8] = biological target: Bile acid receptor (Homo sapiens) (UniProt Q96RI1); test: OT_FXR_FXRSRC1_1440: Odyssey Thera (OT) 24-hour HEK293T Protein-Complementation Assay for Farnesoid X receptor/SRC-1 Co-activator (AID 2283384)
Procedure, shortened: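 Measures ligand-driven FXR–SRC-1 co-activator recruitment in HEK293T via fragment complementation, fluorescence intensity at 24 h. DMSO served as negative control and baseline for gain-of-signal fitting.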

[9] = biological target: Retinoic acid receptor RXR-alpha (Homo sapiens) (UniProt P19793); test: OT_NURR1_NURR1RXRa_1440: Odyssey Thera (OT) 24-hour HEK293T Protein Complementation Assay for Nurr1/retinoid X receptor (RXR) (AID 2283386)
Procedure, shortened: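 Steps: fragment-tagged Nurr1 and RXRα expressed in HEK293T; compounds added; after 24 h, complemented reporter quantified by fluorescence intensity; signal increase over DMSO fitted as the single endpoint.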

[10] = biological target: Cellular tumor antigen p53 (Homo sapiens) (UniProt P04637); test: TOX21_p53_BLA_p3_ratio: Tox21 HCT-116 p53 Agonism Beta-lactamase Assay, Ratio, Phase 3 (AID 2283596)
Procedure, shortened: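 Cells were seeded at 4000/well, rested 5 h at 37C, then dosed with DMSO compound solutions (217-fold dilution) for 16 h. CCF4-AM substrate was loaded for 2 h at room temperature, and the 460/530 nm emission ratio was fitted for gain of signal versus DMSO.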

[11] = TOX21_p53_BLA_p4_viability: Viability Assessment in the Tox21 HCT-116 p53 Agonism Beta-lactamase Assay, Phase 4 (AID 2283597);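 further: hits lower the luminescence signal meaning cytotoxicity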
Procedure, shortened: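 4000 HCT116 cells per well; 5 h attachment; compounds from DMSO, 217-fold dilution; 16 h at 37C. Then CCF4-AM, 2 h RT, followed by CellTiter-Glo, 30 min RT, luminescence. Decrease = cytotoxicity.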

[12] = biological target: Cellular tumor antigen p53 (Homo sapiens) (UniProt P04637); test: TOX21_p53_BLA_p5_ratio: Tox21 HCT-116 p53 Agonism Beta-lactamase Assay, Ratio, Phase 5 (AID 2283599)
Procedure, shortened: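 HCT-116 p53-bla cells (4000/well) plated 5 h, dosed with compound (217-fold DMSO dilution) for 16 h at 37 C; CCF4-AM substrate 2 h at room temperature. Activity is the 460/530 nm emission ratio (405 nm excitation), fitted in gain-of-signal direction versus DMSO.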

[13] = biological target: Cellular tumor antigen p53 (Homo sapiens) (UniProt P04637); test: TOX21_p53_BLA_p4_ratio: Tox21 HCT-116 p53 Agonism Beta-lactamase Assay, Ratio, Phase 4 (AID 2283601)
Procedure, shortened: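 HCT-116 p53 beta-lactamase reporter cells (4000/well) preincubated 5 h, then compound (217-fold dilution of DMSO stock) for 16 h at 37C. CCF4-AM substrate added 2 h at room temperature; 460/530 nm emission ratio fitted upward versus DMSO.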

[14] = biological target: Estrogen receptor beta (Homo sapiens) (UniProt Q92731); test: OT_ER_ERbERb_1440: Odyssey Thera (OT) 24-hour HEK293T Protein-Complementation Assay for Estrogen Receptor-beta/-beta Homodimer (AID 2283380);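 further: scored as signal increase over DMSO baseline for both agonists and antagonists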
Procedure, shortened: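 HEK293T cells stably expressing ER beta LBD (aa 310-547) homodimer fragment-complementation reporter, dosed 24 h. Cells formaldehyde-fixed, Draq5-stained; gain in nuclear (agonist) or nuclear plus cytoplasmic (antagonist) fluorescence versus DMSO read by laser scanning cytometry.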

[15] = biological target: Agonist Androgen Response Element (ARE), AR (gene 367) (UniProt P10275); test: OT_AR_ARELUC_AG_1440: Odyssey Thera (OT) 24-hour CHO-K1 Luciferase Assay for Agonist Androgen Response Element (ARE) (AID 2283379)
Procedure, shortened: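 Gain-of-signal reporter endpoint: cells (CHO-K1, hamster) are treated 24 h, luciferin/ATP reagent added, and luminescence compared with DMSO baseline.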

[16] = biological target: Cellular tumor antigen p53 (Homo sapiens) (UniProt P04637); test: TOX21_p53_BLA_p2_ratio: Tox21 HCT-116 p53 Agonism Beta-lactamase Assay, Ratio, Phase 2 (AID 2283592)
Procedure, shortened: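 First, HCT116 reporter cells settle for 5 h at 37C. Next, DMSO compound solutions are pinned in (217-fold dilution) and left 16 h. Finally, CCF4-AM substrate is loaded 2 h at room temperature and the 460/530 nm ratio read.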

Measured: AC50

CCOCN(C(=O)CCl)c1c(C)cccc1CC
inactive: [1] | [2] | [3]
inconclusive: [4] 46.1 µM and 44 µM | [5] 13.9 µM and 44 µM | [6] 46.1 µM and 44 µM
active: [2] 0.654 µM

CCC[CH2][Sn]([CH2]CCC)([CH2]CCC)[CH2]CCC
active: [8] 11.8 µM | [3] 33.9 µM | [4] 30100 nM | [5] 20.2 µM | [10] 29.6 µM | [11] 42.2 µM | [12] 44.3 µM | [6] 41 µM | [13] 68.7 µM
inconclusive: [7] 91.2 µM | [2] 0.787 µM | [9] 9.92 µM

CC(=O)c1cc2c(cc1C)C(C)(C)C(C)CC2(C)C (configuration not stated)
active: [14] 12.5 µM | [2] 82.1 µM
inactive: [12] | [6]
inconclusive: [7] 87 µM | [8] 9.92 µM | [5] 46.1 µM | [11] 84.9 µM

COP(=O)(OC)O/C(=C\Cl)c1cc(Cl)c(Cl)cc1Cl
inconclusive: [15] 50 µM | [4] 40.4 nM | [6] 46.1 µM
active: [2] 4.45 µM
inactive: [7] | [9] | [5] | [11] | [12]

COc1ccc(C(=CC(=O)N2CCOCC2)c2ccc(Cl)cc2)cc1OC
inactive: [9] | [4] | [10]
active: [8] 76.3 µM
inconclusive: [15] 50 µM | [2] 50 µM | [9] 25.8 µM | [16] 46.1 µM | [5] 46.1 µM | [12] 83.7 µM

O=S(=O)(O)C(F)(F)C(F)(F)C(F)(F)C(F)(F)C(F)(F)C(F)(F)F
inactive: [8] | [9]
inconclusive: [7] 26.2 µM | [2] 1.67 µM | [9] 0.516 µM | [4] 19.7 nM | [6] 46.1 µM | [13] 46.1 µM

O=[N+]([O-])/N=C1\NCCN1Cc1ccc(Cl)nc1
inactive: [7] | [8] | [9]
